Data reported in PMC6874086.
Where two headings read alike, the source gives them in different places. These are yes or no findings as the source states them, for the method shown. In cells and extracts the contact can be indirect. These calls come from enrichment with a bait or labelling near it, and not all partners need be listed. For part of these data: No binding means not detected with the bait.

Amino acid sequences for entries named in this document (tags omitted). Residues count along the entry.
UniProt P18541: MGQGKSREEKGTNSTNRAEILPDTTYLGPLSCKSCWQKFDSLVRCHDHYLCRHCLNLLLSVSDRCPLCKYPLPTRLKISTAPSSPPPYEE
UniProt O73557: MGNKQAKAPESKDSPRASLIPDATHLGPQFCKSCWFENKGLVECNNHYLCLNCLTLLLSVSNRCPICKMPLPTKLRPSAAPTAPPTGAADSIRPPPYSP
UniProt Q8WUM4: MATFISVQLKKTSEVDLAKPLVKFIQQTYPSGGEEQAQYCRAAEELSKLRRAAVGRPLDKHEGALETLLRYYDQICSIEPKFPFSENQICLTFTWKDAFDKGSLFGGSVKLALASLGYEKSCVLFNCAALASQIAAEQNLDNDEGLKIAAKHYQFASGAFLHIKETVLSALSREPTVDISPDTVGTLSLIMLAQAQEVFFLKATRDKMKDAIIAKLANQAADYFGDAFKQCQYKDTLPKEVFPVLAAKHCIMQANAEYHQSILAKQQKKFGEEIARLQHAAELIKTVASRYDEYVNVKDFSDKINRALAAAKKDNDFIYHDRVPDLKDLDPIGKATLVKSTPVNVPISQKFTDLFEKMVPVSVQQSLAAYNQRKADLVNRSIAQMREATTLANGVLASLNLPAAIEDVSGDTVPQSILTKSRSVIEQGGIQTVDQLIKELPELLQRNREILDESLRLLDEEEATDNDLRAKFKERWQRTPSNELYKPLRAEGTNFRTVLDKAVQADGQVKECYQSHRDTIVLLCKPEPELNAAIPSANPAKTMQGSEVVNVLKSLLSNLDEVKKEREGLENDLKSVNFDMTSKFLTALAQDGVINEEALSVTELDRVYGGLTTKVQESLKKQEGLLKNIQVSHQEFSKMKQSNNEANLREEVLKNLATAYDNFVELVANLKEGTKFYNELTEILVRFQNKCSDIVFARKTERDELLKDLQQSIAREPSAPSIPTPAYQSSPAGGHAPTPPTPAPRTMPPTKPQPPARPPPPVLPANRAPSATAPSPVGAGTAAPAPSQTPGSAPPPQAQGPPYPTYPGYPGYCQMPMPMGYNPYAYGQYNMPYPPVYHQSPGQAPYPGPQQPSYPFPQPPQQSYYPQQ
UniProt O14964: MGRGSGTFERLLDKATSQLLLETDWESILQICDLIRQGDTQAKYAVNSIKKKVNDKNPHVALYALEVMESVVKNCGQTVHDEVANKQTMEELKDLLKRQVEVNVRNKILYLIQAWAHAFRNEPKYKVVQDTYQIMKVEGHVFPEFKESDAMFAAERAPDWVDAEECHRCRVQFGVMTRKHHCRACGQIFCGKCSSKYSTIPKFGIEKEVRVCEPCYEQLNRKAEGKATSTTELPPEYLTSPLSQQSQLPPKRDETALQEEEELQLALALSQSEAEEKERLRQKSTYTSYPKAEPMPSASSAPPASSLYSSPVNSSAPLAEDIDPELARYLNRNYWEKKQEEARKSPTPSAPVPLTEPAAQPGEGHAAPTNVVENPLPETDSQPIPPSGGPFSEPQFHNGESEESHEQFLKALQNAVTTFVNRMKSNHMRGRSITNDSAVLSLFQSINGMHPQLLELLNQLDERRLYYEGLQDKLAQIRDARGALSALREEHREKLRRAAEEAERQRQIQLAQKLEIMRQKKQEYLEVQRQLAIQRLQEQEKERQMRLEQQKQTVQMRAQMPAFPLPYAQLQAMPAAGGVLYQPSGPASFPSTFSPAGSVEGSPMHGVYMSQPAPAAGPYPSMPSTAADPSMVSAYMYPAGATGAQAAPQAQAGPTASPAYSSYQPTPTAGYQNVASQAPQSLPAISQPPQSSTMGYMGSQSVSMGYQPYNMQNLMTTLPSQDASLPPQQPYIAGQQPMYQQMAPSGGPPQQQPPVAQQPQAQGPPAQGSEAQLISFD
UniProt P46934: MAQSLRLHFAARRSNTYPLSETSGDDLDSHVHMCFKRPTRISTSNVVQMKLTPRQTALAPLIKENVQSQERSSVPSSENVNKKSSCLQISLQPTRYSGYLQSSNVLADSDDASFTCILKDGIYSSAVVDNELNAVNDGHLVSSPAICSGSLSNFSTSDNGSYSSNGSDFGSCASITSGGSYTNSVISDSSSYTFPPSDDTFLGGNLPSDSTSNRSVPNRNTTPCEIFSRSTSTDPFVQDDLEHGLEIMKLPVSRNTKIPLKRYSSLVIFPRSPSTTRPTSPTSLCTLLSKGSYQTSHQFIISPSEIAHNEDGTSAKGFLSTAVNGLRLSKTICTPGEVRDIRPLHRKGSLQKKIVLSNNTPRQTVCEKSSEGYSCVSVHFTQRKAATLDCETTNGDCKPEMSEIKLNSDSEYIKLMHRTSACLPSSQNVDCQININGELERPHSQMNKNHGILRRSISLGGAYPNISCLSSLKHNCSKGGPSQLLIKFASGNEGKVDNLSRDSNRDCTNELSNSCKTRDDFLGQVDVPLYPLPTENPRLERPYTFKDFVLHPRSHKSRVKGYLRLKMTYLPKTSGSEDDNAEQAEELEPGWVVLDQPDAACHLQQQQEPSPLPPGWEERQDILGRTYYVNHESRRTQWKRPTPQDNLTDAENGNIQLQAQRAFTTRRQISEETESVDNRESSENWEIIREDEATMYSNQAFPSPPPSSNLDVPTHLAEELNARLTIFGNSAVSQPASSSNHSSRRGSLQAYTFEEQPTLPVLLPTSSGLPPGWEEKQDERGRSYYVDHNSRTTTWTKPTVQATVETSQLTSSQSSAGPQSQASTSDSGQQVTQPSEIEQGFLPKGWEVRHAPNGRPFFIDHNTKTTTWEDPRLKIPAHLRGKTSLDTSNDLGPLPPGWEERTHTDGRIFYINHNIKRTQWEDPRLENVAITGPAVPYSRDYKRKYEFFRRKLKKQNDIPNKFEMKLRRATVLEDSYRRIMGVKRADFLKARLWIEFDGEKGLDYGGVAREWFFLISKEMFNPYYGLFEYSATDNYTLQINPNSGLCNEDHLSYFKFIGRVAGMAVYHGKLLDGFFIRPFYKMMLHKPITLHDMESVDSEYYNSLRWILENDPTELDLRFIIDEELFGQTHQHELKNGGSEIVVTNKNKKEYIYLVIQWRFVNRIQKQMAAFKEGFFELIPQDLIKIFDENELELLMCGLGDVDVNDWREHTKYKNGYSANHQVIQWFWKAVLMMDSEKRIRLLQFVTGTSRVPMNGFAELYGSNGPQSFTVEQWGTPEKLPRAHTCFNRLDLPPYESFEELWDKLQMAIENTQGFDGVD
UniProt O00560: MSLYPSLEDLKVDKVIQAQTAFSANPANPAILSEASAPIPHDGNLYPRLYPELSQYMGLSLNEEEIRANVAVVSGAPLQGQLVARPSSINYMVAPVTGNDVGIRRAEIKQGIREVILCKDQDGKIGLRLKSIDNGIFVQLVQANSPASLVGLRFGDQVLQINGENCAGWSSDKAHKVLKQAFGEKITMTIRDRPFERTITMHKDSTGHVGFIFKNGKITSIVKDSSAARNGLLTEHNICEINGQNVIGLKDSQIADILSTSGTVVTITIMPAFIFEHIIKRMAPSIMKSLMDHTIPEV
UniProt O60784: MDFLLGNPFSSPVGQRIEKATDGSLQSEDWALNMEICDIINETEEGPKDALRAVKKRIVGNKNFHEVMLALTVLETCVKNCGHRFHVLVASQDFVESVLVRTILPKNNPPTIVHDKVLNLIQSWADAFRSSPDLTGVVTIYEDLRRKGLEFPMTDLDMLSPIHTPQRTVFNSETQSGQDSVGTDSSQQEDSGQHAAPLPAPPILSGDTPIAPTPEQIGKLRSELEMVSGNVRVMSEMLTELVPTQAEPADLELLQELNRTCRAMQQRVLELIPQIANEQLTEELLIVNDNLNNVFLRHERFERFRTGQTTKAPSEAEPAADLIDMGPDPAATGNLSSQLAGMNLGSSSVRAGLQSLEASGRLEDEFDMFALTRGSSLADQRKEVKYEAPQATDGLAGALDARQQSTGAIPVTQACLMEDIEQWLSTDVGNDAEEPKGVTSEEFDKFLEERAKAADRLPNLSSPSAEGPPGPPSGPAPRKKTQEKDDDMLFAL
UniProt Q99816: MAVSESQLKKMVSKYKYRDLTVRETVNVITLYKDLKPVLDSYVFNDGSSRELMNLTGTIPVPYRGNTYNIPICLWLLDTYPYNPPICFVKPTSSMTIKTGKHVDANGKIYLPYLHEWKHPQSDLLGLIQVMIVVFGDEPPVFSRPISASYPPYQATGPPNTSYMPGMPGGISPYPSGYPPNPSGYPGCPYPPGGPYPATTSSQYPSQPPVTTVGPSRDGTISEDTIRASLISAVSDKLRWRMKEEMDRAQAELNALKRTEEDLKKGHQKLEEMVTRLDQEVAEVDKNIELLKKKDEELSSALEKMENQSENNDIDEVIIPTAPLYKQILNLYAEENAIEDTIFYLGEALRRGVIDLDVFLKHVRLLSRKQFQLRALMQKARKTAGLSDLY
UniProt Q9UN37: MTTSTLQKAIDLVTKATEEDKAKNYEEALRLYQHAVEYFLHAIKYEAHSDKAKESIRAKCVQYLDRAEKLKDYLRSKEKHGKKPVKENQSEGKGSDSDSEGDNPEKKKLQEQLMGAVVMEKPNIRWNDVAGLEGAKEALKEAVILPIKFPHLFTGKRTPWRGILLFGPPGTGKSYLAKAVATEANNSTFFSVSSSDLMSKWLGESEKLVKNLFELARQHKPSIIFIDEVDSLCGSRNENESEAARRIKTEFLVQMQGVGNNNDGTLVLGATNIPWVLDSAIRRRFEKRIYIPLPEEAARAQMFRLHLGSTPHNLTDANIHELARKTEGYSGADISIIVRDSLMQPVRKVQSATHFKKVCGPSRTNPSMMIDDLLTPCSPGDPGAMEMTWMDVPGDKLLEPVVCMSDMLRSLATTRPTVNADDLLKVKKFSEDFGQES
UniProt O75351: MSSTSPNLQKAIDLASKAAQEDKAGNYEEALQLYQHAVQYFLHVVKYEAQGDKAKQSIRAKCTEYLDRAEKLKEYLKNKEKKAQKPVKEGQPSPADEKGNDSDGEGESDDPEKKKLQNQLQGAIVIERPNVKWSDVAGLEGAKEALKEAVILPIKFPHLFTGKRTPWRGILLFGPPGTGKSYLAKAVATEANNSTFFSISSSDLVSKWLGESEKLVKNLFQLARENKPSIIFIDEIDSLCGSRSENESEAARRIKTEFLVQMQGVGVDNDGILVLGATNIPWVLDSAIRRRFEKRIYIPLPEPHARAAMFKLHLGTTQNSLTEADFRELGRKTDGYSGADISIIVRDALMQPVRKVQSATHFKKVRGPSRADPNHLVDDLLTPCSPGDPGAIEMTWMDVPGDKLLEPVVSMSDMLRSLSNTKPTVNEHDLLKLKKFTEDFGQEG
UniProt P07996, residues 19-1170: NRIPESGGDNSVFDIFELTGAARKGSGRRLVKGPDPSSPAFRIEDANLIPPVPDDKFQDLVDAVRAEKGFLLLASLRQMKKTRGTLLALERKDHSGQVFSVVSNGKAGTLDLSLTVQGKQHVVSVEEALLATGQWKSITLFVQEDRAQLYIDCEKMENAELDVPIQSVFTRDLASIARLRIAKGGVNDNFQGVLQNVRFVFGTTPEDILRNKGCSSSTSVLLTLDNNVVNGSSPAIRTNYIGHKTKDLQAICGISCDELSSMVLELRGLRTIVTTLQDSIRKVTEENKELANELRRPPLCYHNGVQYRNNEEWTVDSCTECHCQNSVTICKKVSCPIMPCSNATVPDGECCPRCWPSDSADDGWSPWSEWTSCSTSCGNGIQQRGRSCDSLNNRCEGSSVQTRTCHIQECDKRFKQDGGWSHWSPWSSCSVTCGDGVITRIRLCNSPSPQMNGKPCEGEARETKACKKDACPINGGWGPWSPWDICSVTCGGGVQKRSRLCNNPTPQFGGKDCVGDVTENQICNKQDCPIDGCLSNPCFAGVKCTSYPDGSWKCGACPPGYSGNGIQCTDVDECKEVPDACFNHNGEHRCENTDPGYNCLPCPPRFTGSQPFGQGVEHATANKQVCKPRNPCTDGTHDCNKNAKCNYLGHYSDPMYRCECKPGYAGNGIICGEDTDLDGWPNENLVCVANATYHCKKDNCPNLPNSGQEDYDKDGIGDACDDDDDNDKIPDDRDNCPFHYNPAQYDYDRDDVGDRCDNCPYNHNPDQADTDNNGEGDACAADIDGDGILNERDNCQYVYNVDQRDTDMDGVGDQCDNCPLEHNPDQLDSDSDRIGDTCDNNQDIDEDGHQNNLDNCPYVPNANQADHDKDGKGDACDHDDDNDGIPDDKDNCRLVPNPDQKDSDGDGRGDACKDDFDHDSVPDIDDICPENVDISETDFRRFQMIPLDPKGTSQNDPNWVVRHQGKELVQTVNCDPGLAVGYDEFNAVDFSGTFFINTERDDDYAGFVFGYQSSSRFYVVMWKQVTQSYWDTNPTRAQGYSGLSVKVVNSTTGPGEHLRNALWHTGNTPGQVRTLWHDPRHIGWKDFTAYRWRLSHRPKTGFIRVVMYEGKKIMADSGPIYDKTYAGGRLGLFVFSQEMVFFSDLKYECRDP

B1: annexin A6 (ANXA6) (protein, UniProt P08133 1-673)
chain: MAKPAQGAKYRGSIHDFPGFDPNQDAEALYTAMKGFGSDKEAILDIITSRSNRQRQEVCQSYKSLYGKDLIADLKYELTGKFERLIVGLMRPPAYCDAKEIKDAISGIGTDEKCLIEILASRTNEQMHQLVAAYKDAYERDLEADIIGDTSGHFQKMLVVLLQGTREEDDVVSEDLVQQDVQDLYEAGELKWGTDEAQFIYILGNRSKQHLRLVFDEYLKTTGKPIEASIRGELSGDFEKLMLAVVKCIRSTPEYFAERLFKAMKGLGTRDNTLIRIMVSRSELDMLDIREIFRTKYEKSLYSMIKNDTSGEYKKTLLKLSGGDDDAAGQFFPEAAQVAYQMWELSAVARVELKGTVRPANDFNPDADAKALRKAMKGLGTDEDTIIDIITHRSNVQRQQIRQTFKSHFGRDLMTDLKSEISGDLARLILGLMMPPAHYDAKQLKKAMEGAGTDEKALIEILATRTNAEIRAINEAYKEDYHKSLEDALSSDTSGHFRRILISLATGHREEGGENLDQAREDAQVAAEILEIADTPSGDKTSLETRFMTILCTRSYPHLRRVFQEFIKMTNYDVEHTIKKEMSGDVRDAFVAIVQSVKNKPLFFADKLYKSMKGAGTDEKTLTRIMVSRSEIDLLNIRREFIEKYDKSLHQAIEGDTSGDFLKALLALCGGED

Experiments:
Experiment in all cases: affinity purification with mass spectrometry
[1] = biological target: LCMV Z WT with a C-terminal streptavidin binding peptide (SBP) tag (LCMV) (UniProt P18541)
[2] = biological target: LASV Z WT with a C-terminal streptavidin binding peptide (SBP) tag (Lassa virus) (UniProt O73557)
[3] = biological target: LASV Z WT with a C-terminal streptavidin binding peptide (SBP) tag (Lassa virus) (UniProt O73557); remark: listed apart in the source
[4] = biological target: LCMV Z WT with a C-terminal streptavidin binding peptide (SBP) tag (LCMV) (UniProt P18541); remark: listed apart in the source

| Molecule | binding [1] | binding [2] | binding [3] | binding [4] |
| --- | --- | --- | --- | --- |
| ALIX (official gene symbol PDCD6IP) (from UniProt Q8WUM4 1-868) | binds |  |  |  |
| Hrs (official gene symbol HGS) (from UniProt O14964 1-777) | binds | binds |  |  |
| Nedd4 (from UniProt P46934 1-1319) (enzyme) | binds |  |  |  |
| Syntenin (SDCBP) (from UniProt O00560 1-298) | binds | binds |  |  |
| TOM1 (from UniProt O60784 1-492) | binds |  |  |  |
| Tsg101 (from UniProt Q99816 1-390) | no binding | binds |  |  |
| VPS4A (from UniProt Q9UN37 1-437) (enzyme) | binds |  |  |  |
| VPS4B (from UniProt O75351 1-444) (enzyme) | binds |  |  |  |
| thrombospondin 1 (THBS1) (from UniProt P07996 19-1170) | binds | binds |  |  |
| B1 |  |  | binds | binds |
